# According to the supplement of paper PMC8728848:
# The list shows a part of the results.
# B1: Pwp1 (Candida glabrata) (protein)
# chain: MGSSHHHHHHSSGLVPRGSHMASANPISITNVCQFPDNWARTAGFQATTVRLGLTIASNTYKELLNYPGLFNFATQKATVTQPNFSISGFPFFTGLYGLTVWPINLLVELQGYFVPPESGNYTFTLQGSDDAAILFFANPSTFACGSQNDWPQPREADITVTDTLVPSRTLYLVKGVAYPIRIAYYNGSGDGKLNVSFKDPSGTTHTDWKGYVWQYSNTCSTCTYT
# Assays:
# Test in all cases: glycan array binding signal (z-score within array); higher = stronger binding
# Conditions in all cases: glycan notation: IUPAC condensed, linker removed
# [1] = target: Gal(b1-3)GlcNAc(b1-6)[Gal(b1-3)]GalNAc
# Procedure, shortened: (§1)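 Glycan array data came from 3228 arrays in the Consortium for Functional Glycomics database, and only arrays with an available protein sequence were kept. Glycan names were put into IUPAC-condensed notation, and columns mapping to the same glycan were averaged. The binding signal is a within-array Z-score, averaged across arrays of one protein sequence run at different concentrations or buffers and across linkers. A negative Z-score can be read as non-binding.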
# Gal(b1-3)GlcNAc6S = target: Gal(b1-3)GlcNAc6S
# Procedure, shortened: as §1
# [2] = target: Gal(b1-3)[Fuc(a1-4)]GlcNAc
# Procedure, shortened: as §1
# [3] = target: Gal(b1-3)[Fuc(a1-4)]GlcNAc(b1-2)Man
# Procedure, shortened: as §1
# [4] = target: Gal(b1-3)[Fuc(a1-4)]GlcNAc(b1-2)Man(a1-3)[Gal(b1-3)[Fuc(a1-4)]GlcNAc(b1-2)Man(a1-6)]Man(b1-4)GlcNAc(b1-4)[Fuc(a1-6)]GlcNAc
# Procedure, shortened: as §1
# [5] = target: Gal(b1-3)[Fuc(a1-4)]GlcNAc(b1-3)Gal(b1-3)[Fuc(a1-4)]GlcNAc
# Procedure, shortened: as §1
# [6] = target: Gal(b1-3)[Fuc(a1-4)]GlcNAc(b1-3)Gal(b1-4)[Fuc(a1-3)]GlcNAc
# Procedure, shortened: as §1
# [7] = target: Gal(b1-3)[Fuc(a1-4)]GlcNAc(b1-6)GalNAc
# Procedure, shortened: as §1
# [8] = target: Gal(b1-3)[GlcNAc(b1-6)]GalNAc
# Procedure, shortened: as §1
# [9] = target: Gal(b1-3)[Neu5Ac(a2-6)]GalNAc
# Procedure, shortened: as §1
# [10] = target: Gal(b1-3)[Neu5Ac(a2-6)]GlcNAc(b1-4)Gal(b1-4)Glc
# Procedure, shortened: as §1
# [11] = target: Gal(b1-3)[Neu5Ac(b2-6)]GalNAc
# Procedure, shortened: as §1
# Gal(b1-4)Gal = target: Gal(b1-4)Gal
# Procedure, shortened: as §1
# [12] = target: Gal(b1-4)GalNAc(a1-3)[Fuc(a1-2)]Gal(b1-4)GlcNAc
# Procedure, shortened: as §1
# [13] = target: Gal(b1-4)GalNAc(b1-3)[Fuc(a1-2)]Gal(b1-4)GlcNAc
# Procedure, shortened: as §1
# Gal(b1-4)Glc = target: Gal(b1-4)Glc
# Procedure, shortened: as §1
# Gal(b1-4)Glc6S = target: Gal(b1-4)Glc6S
# Procedure, shortened: as §1
# Gal(b1-4)GlcNAc = target: Gal(b1-4)GlcNAc
# Procedure, shortened: as §1
# [14] = target: Gal(b1-4)GlcNAc(a1-6)Gal(b1-4)GlcNAc
# Procedure, shortened: as §1
# Gal(b1-4)GlcNAc(b1-2)Man = target: Gal(b1-4)GlcNAc(b1-2)Man
# Procedure, shortened: as §1
# [15] = target: Gal(b1-4)GlcNAc(b1-2)Man(a1-3)Man(b1-4)GlcNAc(b1-4)GlcNAc
# Procedure, shortened: as §1
# [16] = target: Gal(b1-4)GlcNAc(b1-2)Man(a1-3)[Gal(b1-4)GlcNAc(b1-2)Man(a1-6)]Man(b1-4)GlcNAc(b1-4)GlcNAc
# Procedure, shortened: as §1
# [17] = target: Gal(b1-4)GlcNAc(b1-2)Man(a1-3)[Gal(b1-4)GlcNAc(b1-2)Man(a1-6)]Man(b1-4)GlcNAc(b1-4)[Fuc(a1-6)]GlcNAc
# Procedure, shortened: as §1
# [18] = target: Gal(b1-4)GlcNAc(b1-2)Man(a1-3)[Gal(b1-4)GlcNAc(b1-2)Man(a1-6)][Gal(b1-4)GlcNAc(b1-4)]Man(b1-4)GlcNAc(b1-4)[Fuc(a1-6)]GlcNAc
# Procedure, shortened: as §1
# [19] = target: Gal(b1-4)GlcNAc(b1-2)Man(a1-3)[Gal(b1-4)GlcNAc(b1-2)Man(a1-6)][GlcNAc(b1-4)]Man(b1-4)GlcNAc(b1-4)[Fuc(a1-6)]GlcNAc
# Procedure, shortened: as §1
# [20] = target: Gal(b1-4)GlcNAc(b1-2)Man(a1-3)[GlcNAc(b1-2)Man(a1-6)]Man(b1-4)GlcNAc(b1-4)GlcNAc
# Procedure, shortened: as §1
# [21] = target: Gal(b1-4)GlcNAc(b1-2)Man(a1-3)[GlcNAc(b1-4)][Gal(b1-4)GlcNAc(b1-2)Man(a1-6)]Man(b1-4)GlcNAc(b1-4)GlcNAc
# Procedure, shortened: as §1
# [22] = target: Gal(b1-4)GlcNAc(b1-2)Man(a1-3)[Man(a1-6)]Man(b1-4)GlcNAc(b1-4)GlcNAc
# Procedure, shortened: as §1
# [23] = target: Gal(b1-4)GlcNAc(b1-2)Man(a1-6)Man(b1-4)GlcNAc(b1-4)GlcNAc
# Procedure, shortened: as §1
# [24] = target: Gal(b1-4)GlcNAc(b1-2)Man(a1-6)[GlcNAc(b1-2)Man(a1-3)]Man(b1-4)GlcNAc(b1-4)GlcNAc
# Procedure, shortened: as §1
# [25] = target: Gal(b1-4)GlcNAc(b1-2)Man(a1-6)[Man(a1-3)]Man(b1-4)GlcNAc(b1-4)GlcNAc
# Procedure, shortened: as §1
# [26] = target: Gal(b1-4)GlcNAc(b1-2)[Gal(b1-4)GlcNAc(b1-4)]Man(a1-3)[Gal(b1-4)GlcNAc(b1-2)Man(a1-6)]Man(b1-4)GlcNAc(b1-4)GlcNAc
# Procedure, shortened: as §1
# [27] = target: Gal(b1-4)GlcNAc(b1-2)[Gal(b1-4)GlcNAc(b1-4)]Man(a1-3)[Gal(b1-4)GlcNAc(b1-2)[Gal(b1-4)GlcNAc(b1-6)]Man(a1-6)]Man(b1-4)GlcNAc(b1-4)GlcNAc
# Procedure, shortened: as §1
# [28] = target: Gal(b1-4)GlcNAc(b1-2)[Gal(b1-4)GlcNAc(b1-4)]Man(a1-3)[GlcNAc(b1-4)][Gal(b1-4)GlcNAc(b1-2)Man(a1-6)]Man(b1-4)GlcNAc(b1-4)GlcNAc
# Procedure, shortened: as §1
# [29] = target: Gal(b1-4)GlcNAc(b1-2)[Gal(b1-4)GlcNAc(b1-4)]Man(a1-3)[GlcNAc(b1-4)][Gal(b1-4)GlcNAc(b1-2)[Gal(b1-4)GlcNAc(b1-6)]Man(a1-6)]Man(b1-4)GlcNAc(b1-4)GlcNAc
# Procedure, shortened: as §1
# [30] = target: Gal(b1-4)GlcNAc(b1-2)[Gal(b1-4)GlcNAc(b1-6)]Man(a1-6)[Gal(b1-4)GlcNAc(b1-2)Man(a1-3)]Man(b1-4)GlcNAc(b1-4)GlcNAc
# Procedure, shortened: as §1
# [31] = target: Gal(b1-4)GlcNAc(b1-2)[Gal(b1-4)GlcNAc(b1-6)]Man(a1-6)[Gal(b1-4)GlcNAc(b1-2)Man(a1-3)]Man(b1-4)GlcNAc(b1-4)[Fuc(a1-6)]GlcNAc
# Procedure, shortened: as §1
# [32] = target: Gal(b1-4)GlcNAc(b1-2)[Gal(b1-4)GlcNAc(b1-6)]Man(a1-6)[GlcNAc(b1-4)][Gal(b1-4)GlcNAc(b1-2)Man(a1-3)]Man(b1-4)GlcNAc(b1-4)GlcNAc
# Procedure, shortened: as §1
# [33] = target: Gal(b1-4)GlcNAc(b1-2)[Gal(b1-4)GlcNAc(b1-6)]Man(a1-6)[GlcNAc(b1-4)][Gal(b1-4)GlcNAc(b1-2)[Gal(b1-4)GlcNAc(b1-4)]Man(a1-3)]Man(b1-4)GlcNAc(b1-4)[Fuc(a1-6)]GlcNAc
# Procedure, shortened: as §1
# [34] = target: Gal(b1-4)GlcNAc(b1-3)Gal(b1-3)GalNAc
# Procedure, shortened: as §1
# [35] = target: Gal(b1-4)GlcNAc(b1-3)Gal(b1-3)GlcNAc
# Procedure, shortened: as §1
# [36] = target: Gal(b1-4)GlcNAc(b1-3)Gal(b1-4)Glc
# Procedure, shortened: as §1
# [37] = target: Gal(b1-4)GlcNAc(b1-3)Gal(b1-4)GlcNAc
# Procedure, shortened: as §1
# [38] = target: Gal(b1-4)GlcNAc(b1-3)Gal(b1-4)GlcNAc(b1-2)Man(a1-3)[Gal(b1-4)GlcNAc(b1-3)Gal(b1-4)GlcNAc(b1-2)Man(a1-6)]Man(b1-4)GlcNAc(b1-4)GlcNAc
# Procedure, shortened: as §1
# [39] = target: Gal(b1-4)GlcNAc(b1-3)Gal(b1-4)GlcNAc(b1-2)Man(a1-3)[Gal(b1-4)GlcNAc(b1-3)Gal(b1-4)GlcNAc(b1-2)Man(a1-6)]Man(b1-4)GlcNAc(b1-4)[Fuc(a1-6)]GlcNAc
# Procedure, shortened: as §1
binder,measurement,setting,value
B1,glycan array binding signal (z-score),[1],0.884
same,glycan array binding signal (z-score),Gal(b1-3)GlcNAc6S,0.568
same,glycan array binding signal (z-score),[2],0.076
same,glycan array binding signal (z-score),[3],0.097
same,glycan array binding signal (z-score),[4],0.284
same,glycan array binding signal (z-score),[5],1.23
same,glycan array binding signal (z-score),[6],0.748
same,glycan array binding signal (z-score),[7],-0.308
same,glycan array binding signal (z-score),[8],-0.264
same,glycan array binding signal (z-score),[9],0.849
same,glycan array binding signal (z-score),[10],0.479
same,glycan array binding signal (z-score),[11],1.04
same,glycan array binding signal (z-score),Gal(b1-4)Gal,0.124
same,glycan array binding signal (z-score),[12],1.45
same,glycan array binding signal (z-score),[13],0.985
same,glycan array binding signal (z-score),Gal(b1-4)Glc,0.891
same,glycan array binding signal (z-score),Gal(b1-4)Glc6S,-0.615
same,glycan array binding signal (z-score),Gal(b1-4)GlcNAc,0.505
same,glycan array binding signal (z-score),[14],0.197
same,glycan array binding signal (z-score),Gal(b1-4)GlcNAc(b1-2)Man,-0.208
same,glycan array binding signal (z-score),[15],1.04
same,glycan array binding signal (z-score),[16],-0.053
same,glycan array binding signal (z-score),[17],-1.58
same,glycan array binding signal (z-score),[18],0.373
same,glycan array binding signal (z-score),[19],0.876
same,glycan array binding signal (z-score),[20],1.15
same,glycan array binding signal (z-score),[21],0.727
same,glycan array binding signal (z-score),[22],0.768
same,glycan array binding signal (z-score),[23],0.264
same,glycan array binding signal (z-score),[24],0.335
same,glycan array binding signal (z-score),[25],0.109
same,glycan array binding signal (z-score),[26],-0.345
same,glycan array binding signal (z-score),[27],0.571
same,glycan array binding signal (z-score),[28],0.295
same,glycan array binding signal (z-score),[29],-1.58
same,glycan array binding signal (z-score),[30],0.454
same,glycan array binding signal (z-score),[31],0.645
same,glycan array binding signal (z-score),[32],0.195
same,glycan array binding signal (z-score),[33],0.531
same,glycan array binding signal (z-score),[34],-0.625
same,glycan array binding signal (z-score),[35],0.776
same,glycan array binding signal (z-score),[36],0.661
same,glycan array binding signal (z-score),[37],0.361
same,glycan array binding signal (z-score),[38],0.746
same,glycan array binding signal (z-score),[39],-1.03

# For reference, some entries already given.
binder,measurement,setting,value
B1,glycan array binding signal (z-score),[17],-1.58
same,glycan array binding signal (z-score),[18],0.373
